Assay results: patent publication US20070105796A1
Results are given in words; binding and its absence hold for the method and conditions named. Binding seen in cells or lysates may run through a third protein. Some results given as binding are weak or reduced against the parent protein; the word gives no strength.

Amino acid sequences for entries named in this document (tags omitted). A change or cut given only in a name is not applied to a line headed by its entry.
UniProt O14746: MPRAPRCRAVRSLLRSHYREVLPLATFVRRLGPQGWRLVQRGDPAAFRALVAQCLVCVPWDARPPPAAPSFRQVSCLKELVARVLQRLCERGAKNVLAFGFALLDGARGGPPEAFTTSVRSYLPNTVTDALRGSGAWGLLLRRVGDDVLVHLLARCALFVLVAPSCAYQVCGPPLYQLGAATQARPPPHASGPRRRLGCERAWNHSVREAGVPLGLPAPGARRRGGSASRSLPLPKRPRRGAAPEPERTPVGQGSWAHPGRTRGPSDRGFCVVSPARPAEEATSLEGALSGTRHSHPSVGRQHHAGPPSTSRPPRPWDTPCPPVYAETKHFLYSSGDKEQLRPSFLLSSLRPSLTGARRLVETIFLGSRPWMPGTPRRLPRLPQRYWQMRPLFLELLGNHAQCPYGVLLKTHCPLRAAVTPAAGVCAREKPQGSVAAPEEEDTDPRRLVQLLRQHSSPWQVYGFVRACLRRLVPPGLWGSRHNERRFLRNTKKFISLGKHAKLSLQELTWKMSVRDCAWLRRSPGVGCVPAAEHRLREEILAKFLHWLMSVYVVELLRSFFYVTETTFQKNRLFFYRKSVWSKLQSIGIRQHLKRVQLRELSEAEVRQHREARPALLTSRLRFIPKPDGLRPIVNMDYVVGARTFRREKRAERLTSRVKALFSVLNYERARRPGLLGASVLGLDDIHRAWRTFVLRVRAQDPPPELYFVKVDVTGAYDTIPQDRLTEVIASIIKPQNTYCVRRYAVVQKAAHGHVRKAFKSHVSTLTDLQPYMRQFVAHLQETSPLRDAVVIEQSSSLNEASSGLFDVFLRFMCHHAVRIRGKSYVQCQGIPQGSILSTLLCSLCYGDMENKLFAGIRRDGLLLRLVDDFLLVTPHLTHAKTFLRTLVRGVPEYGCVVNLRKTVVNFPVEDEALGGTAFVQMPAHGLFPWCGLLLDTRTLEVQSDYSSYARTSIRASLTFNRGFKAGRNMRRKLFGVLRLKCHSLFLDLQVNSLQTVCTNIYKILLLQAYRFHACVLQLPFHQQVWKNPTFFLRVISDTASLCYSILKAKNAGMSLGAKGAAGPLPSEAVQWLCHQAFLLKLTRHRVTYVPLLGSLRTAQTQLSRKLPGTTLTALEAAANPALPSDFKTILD
UniProt Q16644: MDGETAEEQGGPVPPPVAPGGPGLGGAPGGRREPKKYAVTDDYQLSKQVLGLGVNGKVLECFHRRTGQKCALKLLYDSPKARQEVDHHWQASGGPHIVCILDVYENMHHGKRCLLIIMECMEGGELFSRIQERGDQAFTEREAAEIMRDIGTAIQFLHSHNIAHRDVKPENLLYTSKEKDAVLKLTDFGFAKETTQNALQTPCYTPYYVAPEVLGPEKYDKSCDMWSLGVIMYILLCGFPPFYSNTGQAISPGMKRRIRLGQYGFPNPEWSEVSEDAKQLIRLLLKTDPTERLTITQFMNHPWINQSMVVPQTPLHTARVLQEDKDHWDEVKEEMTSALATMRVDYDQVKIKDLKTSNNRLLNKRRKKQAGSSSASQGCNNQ

Assays:
[1] = target: TERT (telomerase reverse transcriptase), catalytic subunit of telomerase (human) (UniProt O14746); experiment: GST pull-down of 35S-methionine labeled TERT (FIG. 2)
[2] = target: TERT (telomerase reverse transcriptase), catalytic subunit of telomerase (human) (UniProt O14746); experiment: GST pull-down of 35S-methionine labeled TERT, SDS-PAGE, autoradiography

binding [1]: binds
binding [2]: binds
Substance: GST fusion MAPKAPK3 (N-terminal GST fusion human MAPKAPK3) (from UniProt Q16644 1-382) (enzyme)
